Experimental data: ChEMBL document CHEMBL2218924, “A broad activity screen in support of a chemogenomic map for kinase signalling research and drug discovery” (Biochem J, 2013); call rule not given here
The list shows a part of the results, in another mix than the full data.

Chains of the proteins cited; added tags and fusions are not shown. Lines headed by an entry give the natural chain unless they say otherwise; changes in a name come on top.
UniProt Q13555: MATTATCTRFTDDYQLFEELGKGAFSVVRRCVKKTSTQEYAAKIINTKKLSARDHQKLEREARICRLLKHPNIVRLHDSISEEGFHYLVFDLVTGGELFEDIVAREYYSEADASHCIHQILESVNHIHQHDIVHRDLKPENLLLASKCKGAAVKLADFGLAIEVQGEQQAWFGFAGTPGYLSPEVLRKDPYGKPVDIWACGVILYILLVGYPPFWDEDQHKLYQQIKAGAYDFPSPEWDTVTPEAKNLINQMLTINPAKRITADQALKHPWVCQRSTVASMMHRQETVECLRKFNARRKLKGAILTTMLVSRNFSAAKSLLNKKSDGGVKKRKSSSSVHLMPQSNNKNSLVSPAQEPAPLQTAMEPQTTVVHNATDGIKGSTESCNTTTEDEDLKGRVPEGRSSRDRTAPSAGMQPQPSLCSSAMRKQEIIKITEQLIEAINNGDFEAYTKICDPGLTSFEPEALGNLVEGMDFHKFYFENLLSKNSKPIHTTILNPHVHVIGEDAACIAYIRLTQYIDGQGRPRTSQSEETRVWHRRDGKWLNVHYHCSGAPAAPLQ
UniProt Q86Z02: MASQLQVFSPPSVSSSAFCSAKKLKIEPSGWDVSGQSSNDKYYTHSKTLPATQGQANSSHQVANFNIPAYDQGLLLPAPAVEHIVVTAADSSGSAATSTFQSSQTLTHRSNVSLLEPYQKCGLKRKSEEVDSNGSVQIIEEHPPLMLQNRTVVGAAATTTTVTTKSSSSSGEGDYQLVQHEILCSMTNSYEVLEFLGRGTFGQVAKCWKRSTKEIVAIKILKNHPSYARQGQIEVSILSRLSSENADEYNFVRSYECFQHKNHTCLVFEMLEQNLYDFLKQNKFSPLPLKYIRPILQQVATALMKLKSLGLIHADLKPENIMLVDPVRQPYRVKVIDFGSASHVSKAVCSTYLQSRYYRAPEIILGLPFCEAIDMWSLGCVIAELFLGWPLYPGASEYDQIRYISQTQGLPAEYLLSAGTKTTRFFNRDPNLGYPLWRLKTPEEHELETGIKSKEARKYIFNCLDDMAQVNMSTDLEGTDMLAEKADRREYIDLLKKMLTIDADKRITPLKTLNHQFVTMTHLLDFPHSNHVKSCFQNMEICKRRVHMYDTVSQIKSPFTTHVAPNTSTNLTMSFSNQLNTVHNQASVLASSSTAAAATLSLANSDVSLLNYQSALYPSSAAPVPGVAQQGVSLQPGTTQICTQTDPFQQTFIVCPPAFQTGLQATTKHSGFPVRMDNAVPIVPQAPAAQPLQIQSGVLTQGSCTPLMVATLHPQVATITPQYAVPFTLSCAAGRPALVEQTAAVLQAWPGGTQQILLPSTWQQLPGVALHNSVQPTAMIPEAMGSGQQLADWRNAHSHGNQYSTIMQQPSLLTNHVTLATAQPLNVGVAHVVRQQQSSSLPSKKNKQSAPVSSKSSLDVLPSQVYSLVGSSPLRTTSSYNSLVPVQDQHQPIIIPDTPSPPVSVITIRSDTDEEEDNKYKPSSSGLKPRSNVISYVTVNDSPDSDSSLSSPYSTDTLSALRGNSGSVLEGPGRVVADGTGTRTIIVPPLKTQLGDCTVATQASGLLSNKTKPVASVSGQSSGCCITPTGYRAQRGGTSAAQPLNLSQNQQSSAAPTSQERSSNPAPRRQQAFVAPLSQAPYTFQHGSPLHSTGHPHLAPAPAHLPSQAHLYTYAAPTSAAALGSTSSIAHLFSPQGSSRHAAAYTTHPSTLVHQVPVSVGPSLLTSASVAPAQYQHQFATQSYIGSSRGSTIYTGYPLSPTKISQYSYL
UniProt P80192: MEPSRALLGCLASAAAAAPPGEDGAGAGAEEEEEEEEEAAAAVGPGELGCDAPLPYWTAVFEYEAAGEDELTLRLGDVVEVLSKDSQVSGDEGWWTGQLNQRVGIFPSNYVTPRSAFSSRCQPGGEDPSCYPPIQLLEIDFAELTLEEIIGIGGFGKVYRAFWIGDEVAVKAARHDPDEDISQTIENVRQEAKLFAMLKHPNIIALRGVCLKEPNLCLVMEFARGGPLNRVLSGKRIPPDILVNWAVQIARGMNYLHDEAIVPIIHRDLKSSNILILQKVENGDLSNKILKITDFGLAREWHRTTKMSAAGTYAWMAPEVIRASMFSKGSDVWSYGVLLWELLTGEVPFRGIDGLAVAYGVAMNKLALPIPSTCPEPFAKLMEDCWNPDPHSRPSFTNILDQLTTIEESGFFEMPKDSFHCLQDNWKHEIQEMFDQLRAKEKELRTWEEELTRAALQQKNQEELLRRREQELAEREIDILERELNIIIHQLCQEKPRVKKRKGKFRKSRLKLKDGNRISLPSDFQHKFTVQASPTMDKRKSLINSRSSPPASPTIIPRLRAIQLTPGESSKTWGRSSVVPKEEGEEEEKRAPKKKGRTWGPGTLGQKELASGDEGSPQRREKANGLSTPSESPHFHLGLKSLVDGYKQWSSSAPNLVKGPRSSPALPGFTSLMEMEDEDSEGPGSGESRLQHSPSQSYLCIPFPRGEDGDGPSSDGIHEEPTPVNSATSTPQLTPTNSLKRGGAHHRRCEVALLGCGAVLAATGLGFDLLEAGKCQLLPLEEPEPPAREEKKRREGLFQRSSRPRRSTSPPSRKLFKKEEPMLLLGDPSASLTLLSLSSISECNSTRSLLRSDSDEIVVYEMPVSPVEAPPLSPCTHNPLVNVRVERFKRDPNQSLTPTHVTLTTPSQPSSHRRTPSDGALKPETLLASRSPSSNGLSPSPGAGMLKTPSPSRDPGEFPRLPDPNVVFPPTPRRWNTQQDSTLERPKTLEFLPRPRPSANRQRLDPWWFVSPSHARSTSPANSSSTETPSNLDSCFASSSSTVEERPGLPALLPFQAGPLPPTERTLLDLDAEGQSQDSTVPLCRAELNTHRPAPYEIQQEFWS
UniProt Q86Y07: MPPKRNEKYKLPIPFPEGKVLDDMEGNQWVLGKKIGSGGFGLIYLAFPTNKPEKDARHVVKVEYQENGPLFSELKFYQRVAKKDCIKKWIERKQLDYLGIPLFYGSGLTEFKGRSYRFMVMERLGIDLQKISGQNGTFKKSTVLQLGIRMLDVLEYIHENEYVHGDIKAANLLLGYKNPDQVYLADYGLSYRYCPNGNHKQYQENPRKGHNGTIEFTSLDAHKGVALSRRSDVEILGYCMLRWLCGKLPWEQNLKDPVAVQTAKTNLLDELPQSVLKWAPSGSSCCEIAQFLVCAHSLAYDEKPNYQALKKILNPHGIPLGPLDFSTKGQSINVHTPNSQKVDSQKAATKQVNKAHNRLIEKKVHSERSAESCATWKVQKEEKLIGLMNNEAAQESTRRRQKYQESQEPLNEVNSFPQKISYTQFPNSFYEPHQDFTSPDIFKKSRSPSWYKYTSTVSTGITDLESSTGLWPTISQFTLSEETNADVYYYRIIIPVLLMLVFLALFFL

Tests used:
[1] = target: Calcium/calmodulin-dependent protein kinase type II subunit gamma (Homo sapiens) (UniProt Q13555); details: at 1 µM
[2] = target: Calcium/calmodulin-dependent protein kinase type II subunit gamma (Homo sapiens) (UniProt Q13555); details: at 10 µM
[3] = target: Homeodomain-interacting protein kinase 1 (Homo sapiens) (UniProt Q86Z02); details: at 10 µM
[4] = target: Mitogen-activated protein kinase kinase kinase 9 (Homo sapiens) (UniProt P80192); details: at 1 µM
[5] = target: Serine/threonine-protein kinase VRK2 (Homo sapiens) (UniProt Q86Y07); details: at 1 µM;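 also: remaining VRK2 kinase activity expressed as percent of uninhibited control, measured in MOPS buffer at pH 7.0 containing EDTA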
[6] = target: Protein kinase C gamma type (Homo sapiens) (UniProt P05129); details: at 1 µM

## O=[N+]([O-])c1ccc(-c2nc(-c3ccc(F)cc3)c(-c3ccncc3)[nH]2)cc1
[1]
  residual activity: 106%
[2]
  residual activity: 106%
[3]
  residual activity: 101%
[4]
  residual activity: 105%
[5]
  residual activity: inactive: 102%
[6]
  residual activity: 104%
